Literature values, collected in patent US5847108A, “Clathrate of isoflavone derivatives and edible composition comprising the same” (Fujicco Co., Ltd., priority 1996, dated 1998).

conditions: taste; Okubo et al.; cited from earlier work

| Compound | Threshold value |
| --- | --- |
| O=c1c(-c2ccc(O)cc2)coc2cc(O[C@@H]3O[C@H](CO)[C@@H](O)[C@H](O)[C@H]3O)ccc12 [daidzin] | 10^-2 mm |
| O=c1c(-c2ccc(O)cc2)coc2cc(O[C@@H]3O[C@H](CO)[C@@H](O)[C@H](O)[C@H]3O)cc(O)c12 [genistin] | 10^-1 mM |
| COc1cc2c(=O)c(-c3ccc(O)cc3)coc2cc1O[C@@H]1O[C@H](CO)[C@@H](O)[C@H](O)[C@H]1O [glycitin] | 10^-3 mM |
